PubChem BioAssay AID652243, Drosophila RNAi Screening Center | 2013
In all, the deposit lists about 24,000 reagents; this is a random part of those that have a named target and a result. Over the whole deposit, 246 (1%) were called active. 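Plates not normalised; calls are printed but the firefly/Renilla ratio behind them is not deposited; fold cut for lowering reported inconsistently.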 The raw values are shown without normalisation. Reagents against one gene are numbered here. Names joined by + are all predicted targets of the reagent. Not stated in the record: the amount of reagent.

Aim: 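Fly regulators of androgen-dependent reporter output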 (primary screen)
Cell system: Drosophila S2R+ cells
Reagents: long dsRNA against Drosophila genes
Time to read-out: 72 h (48 h, then 24 h hormone)
Challenge: synthetic androgen R1881 at 10 nM for 24 h
Measurement: 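Per-well raw luminescence of the androgen-driven firefly reporter and of the Renilla control, two replicates each, without normalisation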
Reading the numbers: firefly reporter light: higher = more light from androgen-responsive reporter; Renilla control light: higher = more constitutive control signal (cell number, transfection)
Call rule: 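Hit when the log firefly-to-Renilla ratio dropped or increased by a fixed fold versus the mean of GFP or LacZ controls across duplicate plates; lowering cut given as 1.5 and as 3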
Meaning of the calls: active = hit: reporter lowered or raised; inactive = no hit

gene | reagent | firefly reporter light, replicate 1 | firefly reporter light, replicate 2 | Renilla control light, replicate 1 | Renilla control light, replicate 2 | outcome
Jon25Bii (GeneID 33707) | 1 | 1.44e5 | 88676 | 1.59e6 | 5.48e5 | inactive
Jon25Bii (GeneID 33707) | 2 | 5.51e5 | 3.99e5 | 8.12e5 | 6.70e5 | inactive
dnt (GeneID 35207) | 1 | 8.27e5 | 9.53e5 | 1.31e6 | 1.34e6 | inactive
dnt (GeneID 35207) | 2 | 5.25e5 | 5.71e5 | 8.13e5 | 8.09e5 | inactive
dnt (GeneID 35207) | 3 | – | – | – | – | inactive
CG7065 (GeneID 31844) | 1 | 1.09e5 | 1.17e5 | 1.10e6 | 1.09e6 | inactive
CG7065 (GeneID 31844) | 2 | 7.37e5 | 7.97e5 | 7.40e5 | 7.07e5 | inactive
sing + Axs | 1 | 3.86e5 | 4.08e5 | 3.21e6 | 2.99e6 | inactive
Dyro (GeneID 39271) | 1 | 61519 | 49869 | 1.31e6 | 1.19e6 | inactive
Dyro (GeneID 39271) | 2 | 6.63e5 | 8.18e5 | 6.06e5 | 8.93e5 | inactive
Gba1a (GeneID 42796) | 1 | 8.21e5 | 8.62e5 | 2.73e6 | 2.07e6 | inactive
Sobp (GeneID 36260) | 1 | 4.27e5 | 4.37e5 | 1.12e6 | 1.96e6 | inactive
Sobp (GeneID 36260) | 2 | 6.04e5 | 5.35e5 | 1.16e6 | 1.03e6 | inactive
Root (GeneID 42860) | 1 | 1.75e5 | 2.17e5 | 2.60e6 | 2.29e6 | inactive
Roc1a (GeneID 31014) | 1 | 3.57e5 | 3.65e5 | 3.26e6 | 2.96e6 | inactive
GatC + PolG2 | 1 | 9.85e5 | 7.84e5 | 1.65e6 | 1.86e6 | inactive
CG4957 (GeneID 34374) | 1 | 1.45e5 | 1.25e5 | 1.49e6 | 1.32e6 | inactive
CG4957 (GeneID 34374) | 2 | 3.56e5 | 6.11e5 | 1.21e6 | 1.21e6 | inactive
HLH3B (GeneID 31249) | 1 | 1.95e5 | 2.53e5 | 3.44e6 | 4.30e6 | active
HLH3B (GeneID 31249) | 2 | 3.98e5 | 4.92e5 | 5.69e5 | 5.39e5 | inactive
CG16711 (GeneID 39135) | 1 | 1.91e5 | 1.74e5 | 1.76e6 | 1.53e6 | inactive
CG16711 (GeneID 39135) | 2 | 7.65e5 | 9.74e5 | 8.75e5 | 7.84e5 | inactive
beta4GalNAcTA (GeneID 36585) | 1 | 4.37e5 | 3.83e5 | 3.06e6 | 4.16e6 | inactive

Single entries from above:
For “firefly reporter light, replicate 2”, Dyro (GeneID 39271) #2 is entered as 8.18e5
For “firefly reporter light, replicate 2”, sing + Axs has 4.08e5
Entry of CG16711 (GeneID 39135) #1 under “Renilla control light, replicate 1”: 1.76e6
Result of CG4957 (GeneID 34374) #2 under “Renilla control light, replicate 1”: 1.21e6

Next results:
gene | reagent | firefly reporter light, replicate 1 | firefly reporter light, replicate 2 | Renilla control light, replicate 1 | Renilla control light, replicate 2 | outcome
rumpel (GeneID 31674) | 1 | 3.51e5 | 4.20e5 | 3.74e6 | 2.87e6 | inactive
TkR99D (GeneID 43551) | 1 | 4.24e5 | 3.63e5 | 2.09e6 | 2.69e6 | inactive
CG1136 (GeneID 38479) | 1 | 1.19e6 | 1.31e6 | 2.18e6 | 2.00e6 | inactive
Myt1 (GeneID 38649) | 1 | 1.97e5 | 1.59e5 | 1.73e6 | 1.68e6 | inactive
Myt1 (GeneID 38649) | 2 | 8.71e5 | 8.28e5 | 1.20e6 | 1.16e6 | inactive
p38b (GeneID 34780) | 1 | 2.28e5 | 3.28e5 | 1.77e6 | 2.53e6 | inactive
p38b (GeneID 34780) | 2 | – | – | – | – | inactive
Gcna (GeneID 31139) | 1 | 99546 | 67567 | 8.99e5 | 7.81e5 | inactive
hbt (GeneID 34738) | 1 | 1.71e5 | 1.93e5 | 1.44e6 | 1.43e6 | inactive
hbt (GeneID 34738) | 2 | 1.09e6 | 7.31e5 | 7.03e5 | 8.30e5 | inactive
CG13855 (GeneID 42629) | 1 | 2.79e5 | 3.20e5 | 3.42e6 | 2.89e6 | inactive
CG13855 (GeneID 42629) | 2 | 2.73e5 | 2.87e5 | 4.08e5 | 6.81e5 | inactive
Gpa2 (GeneID 5740142) | 1 | 1.38e6 | 1.05e6 | 2.70e6 | 1.82e6 | inactive
CG15705 (GeneID 36815) | 1 | 91645 | 66162 | 1.51e6 | 1.51e6 | inactive
CG15705 (GeneID 36815) | 2 | 3.26e5 | 4.71e5 | 1.58e6 | 1.58e6 | inactive
CG10969 (GeneID 39451) | 1 | 1.67e5 | 1.43e5 | 1.47e6 | 1.29e6 | inactive
CG10969 (GeneID 39451) | 2 | 4.63e5 | 4.27e5 | 7.51e5 | 7.51e5 | inactive
